Our source for the binding values is patent publication US8293494.

In one assay the target is T1, MBP-JMJD2C, Q9H3R0.
T1 chain: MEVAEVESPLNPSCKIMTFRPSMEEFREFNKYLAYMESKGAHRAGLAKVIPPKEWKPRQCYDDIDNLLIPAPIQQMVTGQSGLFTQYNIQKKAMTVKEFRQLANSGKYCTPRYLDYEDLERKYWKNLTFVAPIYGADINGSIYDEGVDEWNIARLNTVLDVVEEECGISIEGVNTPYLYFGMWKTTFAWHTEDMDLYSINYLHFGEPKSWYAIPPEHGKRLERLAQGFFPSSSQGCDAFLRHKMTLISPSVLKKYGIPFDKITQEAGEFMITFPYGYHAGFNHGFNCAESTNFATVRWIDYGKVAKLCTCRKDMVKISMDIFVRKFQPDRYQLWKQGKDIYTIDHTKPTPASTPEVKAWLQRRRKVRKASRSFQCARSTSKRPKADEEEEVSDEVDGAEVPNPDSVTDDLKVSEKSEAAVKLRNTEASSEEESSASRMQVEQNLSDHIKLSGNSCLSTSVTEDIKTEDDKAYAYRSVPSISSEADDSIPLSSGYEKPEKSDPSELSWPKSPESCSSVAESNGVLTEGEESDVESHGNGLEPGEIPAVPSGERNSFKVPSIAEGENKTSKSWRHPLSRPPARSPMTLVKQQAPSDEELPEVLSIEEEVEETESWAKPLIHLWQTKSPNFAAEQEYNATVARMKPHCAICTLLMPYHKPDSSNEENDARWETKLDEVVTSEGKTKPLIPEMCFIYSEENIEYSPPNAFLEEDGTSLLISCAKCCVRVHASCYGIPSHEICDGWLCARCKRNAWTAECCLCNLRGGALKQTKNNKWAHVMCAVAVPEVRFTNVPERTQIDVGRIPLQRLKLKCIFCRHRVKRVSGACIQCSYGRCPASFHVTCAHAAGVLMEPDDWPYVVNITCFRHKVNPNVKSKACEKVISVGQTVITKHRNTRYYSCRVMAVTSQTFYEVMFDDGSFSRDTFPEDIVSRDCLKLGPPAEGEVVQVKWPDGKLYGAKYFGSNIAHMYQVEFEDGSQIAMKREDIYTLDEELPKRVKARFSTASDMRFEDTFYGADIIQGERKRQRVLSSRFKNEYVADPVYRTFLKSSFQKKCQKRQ
In words: MBP pull-down with labelled full-length AR. The settings on record: remark: other sources report otherwise.

The target in assay [1] is T2, Flag-AR, P10275.
T2 chain: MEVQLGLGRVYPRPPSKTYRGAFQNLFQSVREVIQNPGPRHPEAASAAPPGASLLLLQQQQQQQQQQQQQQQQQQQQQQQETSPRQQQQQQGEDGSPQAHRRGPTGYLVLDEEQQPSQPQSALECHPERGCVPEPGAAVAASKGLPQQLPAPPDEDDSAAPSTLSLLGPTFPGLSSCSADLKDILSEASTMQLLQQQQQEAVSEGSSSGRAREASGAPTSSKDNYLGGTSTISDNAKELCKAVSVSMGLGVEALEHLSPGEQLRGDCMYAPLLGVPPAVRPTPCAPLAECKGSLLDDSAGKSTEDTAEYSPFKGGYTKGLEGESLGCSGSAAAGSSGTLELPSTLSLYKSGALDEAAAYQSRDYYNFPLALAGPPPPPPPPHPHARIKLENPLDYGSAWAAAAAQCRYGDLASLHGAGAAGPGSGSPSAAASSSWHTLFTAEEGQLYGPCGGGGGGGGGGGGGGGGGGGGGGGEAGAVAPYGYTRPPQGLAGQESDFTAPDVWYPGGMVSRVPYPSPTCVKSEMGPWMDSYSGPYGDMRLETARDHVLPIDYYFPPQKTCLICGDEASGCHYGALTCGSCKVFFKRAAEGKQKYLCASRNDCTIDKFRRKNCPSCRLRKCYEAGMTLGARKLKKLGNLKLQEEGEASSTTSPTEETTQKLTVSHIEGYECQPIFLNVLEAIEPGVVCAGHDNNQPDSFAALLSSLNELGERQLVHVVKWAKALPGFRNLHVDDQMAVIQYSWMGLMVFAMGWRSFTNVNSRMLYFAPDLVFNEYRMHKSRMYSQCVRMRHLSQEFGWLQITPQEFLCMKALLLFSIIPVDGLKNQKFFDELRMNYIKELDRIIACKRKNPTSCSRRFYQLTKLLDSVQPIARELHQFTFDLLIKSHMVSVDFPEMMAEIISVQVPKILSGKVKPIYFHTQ
In words: co-immunoprecipitation with α-Flag from transfected 293 cells, Western blot with α-V5. The settings on record: remark: other sources report otherwise. (In western blotting, separated proteins are transferred to a membrane and probed.)

The target in assay [2] is T2, Flag-AR, P10275. In words: TAP purification, TEV release, then α-Flag immunoprecipitation from transfected 293 cells. Conditions: remark: other sources report otherwise.
In assay [3] the target is GST-AR-DBD (UniProt P10275). In words: GST pull-down of purified proteins, Western blot with α-JMJD2C.
The target of assay [4] is GST-AR-LBD (UniProt P10275). The description is as above.
Assay [5] concerns the target GST-AR-NTD (UniProt P10275). Described as above.
Assay [6] addresses GST-AR-DBD (UniProt P10275). In words: GST pull-down with labelled JMJD2C.
For assay [7], the target named is GST-AR-LBD (UniProt P10275). In words: GST pull-down with labelled JMJD2C.
Assay [8] has as its target GST-AR-NTD (UniProt P10275). In words: GST pull-down with labelled JMJD2C.
In assay [9] the target is T3, androgen receptor (endogenous, ligand-bound, LNCaP cells) (human), P10275.
T3 chain: T2 chain
In words: Re-ChIP (α-AR, then α-JMJD2C) in R1881-treated LNCaP cells. Conditions: remark: other sources report otherwise.

Results are given in words; binding and its absence hold for the method and conditions named. For some of these results: Binding seen in cells or lysates may run through a third protein. Some results given as binding are weak or reduced against the parent protein; the word gives no strength. For some of these results: Tags and fused reporters may be left off the sequences shown.

B1: labelled full-length AR (ARwt), P10275 1-920 (receptor, UniProt P10275 1-920, looked up)
chain: T2 chain
As for B1, the binding entry with MBP-JMJD2C, Q9H3R0 was “binds”.

B2: V5-JMJD2C, Q9H3R0 1-1056 (enzyme, UniProt Q9H3R0 1-1056, looked up, not shown: small tags and cut ends)
chain: T1 chain
Take B2: the binding result in the assay with Flag-AR, P10275 [1] was “binds”; in the assay with Flag-AR, P10275 [2] it was “binds”.

B3: MBP-JMJD2C (enzyme, UniProt Q9H3R0 1-1056, looked up, not shown: large carriers)
chain: T1 chain
B3: the binding entry with GST-AR-DBD [3], in the assay with GST-AR-LBD [4] and with GST-AR-NTD [5] was “binds” in each case.

B4: labelled full-length JMJD2C (in vitro translated) (enzyme, UniProt Q9H3R0 1-1056, looked up)
chain: T1 chain
With B4, the binding result with GST-AR-DBD [6], with GST-AR-LBD [7] and with GST-AR-NTD [8] was “binds” in each case.

B5: JMJD2C (endogenous, LNCaP cells), Q9H3R0 1-1056 (enzyme, human, UniProt Q9H3R0 1-1056, looked up)
chain: T1 chain
In the case of B5, the binding entry in assay [9] is listed as “binds”.
